Source: PubChem BioAssay AID493014 (National Center for Advancing Translational Sciences (NCATS), 2011)
The other results are listed elsewhere or left out. Further columns of the screen follow, without active or inactive calls. The list favours compounds with an active or inconclusive main result. Potencies come from curve fits of mixed quality, noted in brackets.

Assay: qHTS Assay to Find Inhibitors of Chronic Active B-Cell Receptor Signaling
Conditions: ABC-DLBCL IkBa-CBG/CBR reporter, luminescence ratio (green luciferase fused to IkBa over red control in TMD8 lymphoma cells), 4 h
How it was run: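 Doxycycline induced both beetle luciferases in TMD8 lymphoma cells; IKK-driven degradation limits the IkappaBalpha-fused green signal, while red luminescence normalises for cell number and nonspecific effects. Compounds tested up to 46 uM, 4 hrs.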

[1] = measured here: CBR red luminescence, cell number
[2] = measured here: IkBa-CBG green luminescence

| SMILES | AC50 [1] | AC50 [2] |
| --- | --- | --- |
| COC(=O)CN(c1ccccc1F)S(=O)(=O)c1ccc(C)cc1 | 11.2 µM [rising, partial curve, poor fit] | – |
| O=C(COc1ccccc1Cl)Nc1ccc(N2CCCC2)cc1 | 2.51 µM [rising, full curve] | – |
| Cc1cc(C)c(O)c(-c2cc(C(=O)Nc3ccc(S(=O)(=O)N4CCOCC4)cc3)[nH]n2)c1 | 2.91 µM [falling, partial curve, poor fit] | – |
| COc1cccc(-c2noc(N)c2C#N)c1 | 0.891 µM [falling, full curve, poor fit] | – |
| O=C(c1ccc(Cl)nc1)N1CCN(C/C=C/c2ccccc2)CC1 | 31.6 µM [rising, single point] | – |
| Cc1ccc(C2C(C#N)=C(N)Oc3cc(C)oc(=O)c32)o1 (configuration not stated) | 11.2 µM [falling, partial curve, poor fit] | 12.6 µM [rising, partial curve, poor fit] |
| Brc1ccc(C2=CC(c3cccs3)n3ncnc3N2)cc1 (configuration not stated) | 4.47 µM [falling, partial curve] | – |
| CCOC(=O)c1sc(NC(=O)Cc2ccc(F)cc2)nc1C | 0.316 µM [falling, full curve, poor fit] | – |
| COCCOC(=O)CSc1ncccc1-c1nc2cc(C)c(C)cc2[nH]1 | 17.8 µM [falling, partial curve, poor fit] | – |
| C/C(Cn1cnc([N+](=O)[O-])n1)=N\NC(=O)c1cccc(F)c1 | 11.6 µM [falling, partial curve] | 32.6 µM [falling, partial curve, poor fit] |
| CCOC(=O)N1CCN(C(=O)CSCc2ccc(Br)cc2)CC1 | 22.4 µM [falling, single point] | – |
| COc1cc(/C=C/c2nc(-c3ccccc3O)n[nH]2)cc(OC)c1OC | 20.6 µM [falling, partial curve, poor fit] | – |
| CCc1nc2ccccc2c(C(=O)Oc2cccc3cccnc23)c1C | 2.82 µM [rising, partial curve, poor fit] | – |
| CCN1CCCC1CN(Cc1cc2ccc(C)cc2[nH]c1=O)C(=S)Nc1ccccc1C(=O)OC (configuration not stated) | 2.82 µM [falling, partial curve] | – |
| COc1c(/C=N/NC(=O)c2ccccc2O)c(CCN(C)C(C)=O)cc2c1OCO2 | 7.31 µM [falling, partial curve] | – |
| NS(=O)(=O)c1ccc(NC(=O)c2c(F)cccc2Cl)cc1 | 31.6 µM [rising, single point] | – |
| COC(=O)N/N=C/c1ccc(OS(=O)(=O)c2ccc(C)cc2)c(OC)c1 | 17.8 µM [falling, single point] | – |
| CCn1c(SCc2nc3scc(-c4ccccc4)c3c(=O)[nH]2)nnc1-c1cccs1 | 32.6 µM [falling, single point] | – |
| O=C(CCn1c(=O)c2ccccc2n(Cc2cccnc2)c1=O)NCc1ccc2c(c1)OCO2 | 29.1 µM [rising, single point] | – |
| CCc1ccc2c(c1)cc(CN(Cc1ccco1)C(C)=O)c1nnnn12 | 15.8 µM [rising, single point] | – |
| Cc1ccc(-c2csc(NC(=O)CCNC(=O)c3ccccc3Cl)n2)cc1 | 23.1 µM [falling, single point] | – |

| SMILES | AC50 [1] | AC50 [2] |
| --- | --- | --- |
| CC(=O)Nc1ccc(S(=O)(=O)N(C)CC(=O)OCC(=O)Nc2ccc3c(c2)OCO3)cc1 | 13 µM [rising, partial curve, poor fit] | – |
| CCOc1cc(C2C(C#N)=C(N)Oc3cc(N)ccc32)ccc1O (configuration not stated) | 35.5 µM [falling, single point] | – |
| CC1CCN(c2ccc(NC(=O)c3ccccc3[N+](=O)[O-])cc2)CC1 | 3.98 µM [falling, full curve] | – |
| CCOC(=O)NC(=O)CSc1nnnn1-c1ccc(C)cc1 | 16.4 µM [rising, single point] | – |
| Cc1cc(Br)ccc1NCc1ccccn1 | 3.16 µM [rising, single point] | – |
| CCOc1ccc(Cl)cc1S(=O)(=O)N1CCN(c2ccc(C)c(C)c2)CC1 | 29.1 µM [rising, single point] | 23.1 µM [falling, partial curve, poor fit] |
| CC1(C)OC(=O)CC1C(=O)NCc1ccccc1 (configuration not stated) | 0.731 µM [rising, full curve, poor fit] | – |
| COc1cccc2sc(N(CCCN(C)C)C(=O)C(c3ccccc3)c3ccccc3)nc12 | 7.08 µM [falling, full curve] | – |
| COc1ccc(C(=O)Nc2c(N)nc(SCC(=O)NCC3CCCO3)[nH]c2=O)cc1 (configuration not stated) | 0.631 µM [falling, full curve, poor fit] | – |
| CC1CC(C)CN(C(=O)C(Cc2ccccc2)NC(=O)c2ccccc2)C1 (configuration not stated) | 18.4 µM [falling, partial curve, poor fit] | – |
| Cc1ccc(-n2ncc3c2CCCC3NC(=O)c2ocnc2C)cc1C (configuration not stated) | 1.26 µM [rising, full curve, poor fit] | – |
| Nc1ncnc2c1ncn2[C@@H]1O[C@H](CNS(=O)(=O)c2ccc3c(c2)CCN(C(=O)C(F)(F)F)C3)[C@@H](O)[C@H]1O | 23.1 µM [rising, single point] | – |
| O=C(O)CCC(=O)Nc1nc(-c2ccccc2)cs1 | 23.1 µM [falling, single point] | – |
| O=C(COC(=O)/C=C/c1ccco1)NCCc1ccccc1 | 11.2 µM [rising, partial curve, poor fit] | – |
| Cc1csc2c(N(C)CCO)ncnc12 | 3.55 µM [rising, single point] | – |
| CC(=O)Nc1cccc(NC(=O)c2ccc3[nH]c(C)c(C)c3c2)c1 | 1 µM [falling, partial curve] | – |
| O=C(CCc1nc2ccccc2[nH]1)Nc1ccc(F)cc1 | 32.6 µM [falling, partial curve, poor fit] | – |
| Cc1nc2ccc(NC(=O)N3CCN(c4ccccn4)CC3)cc2s1 | 0.517 µM [falling, full curve, poor fit] | – |
| COc1ccc(-n2nc(C(=O)NCC(=O)N3CCCCCC3)c3ccccc3c2=O)cc1Cl | 31.6 µM [falling, single point] | – |
| Cc1ccccc1C(=O)NC(=S)Nc1ccc2[nH]c(=O)[nH]c2c1 | 0.794 µM [falling, full curve, poor fit] | – |
| CCc1ccc2nc3n[nH]c(N)c3cc2c1 | – | 15.8 µM [falling, single point] |

Taken from the entries so far for reference:

| SMILES | AC50 [1] | AC50 [2] |
| --- | --- | --- |
| Cc1csc2c(N(C)CCO)ncnc12 | 3.55 µM [rising, single point] | – |
| CC(=O)Nc1cccc(NC(=O)c2ccc3[nH]c(C)c(C)c3c2)c1 | 1 µM [falling, partial curve] | – |
| O=C(CCc1nc2ccccc2[nH]1)Nc1ccc(F)cc1 | 32.6 µM [falling, partial curve, poor fit] | – |

(next part)

| SMILES | AC50 [1] | AC50 [2] |
| --- | --- | --- |
| CCCn1c(N)c(C(=O)CSc2ncnc3sccc23)c(=O)n(C)c1=O | 0.411 µM [falling, full curve, poor fit] | – |
| O=C(CS(=O)c1ccc(C(F)(F)F)cc1[N+](=O)[O-])Oc1ccccc1 (configuration not stated) | 8.2 µM [falling, partial curve, poor fit] | 23.1 µM [rising, partial curve, poor fit] |
| CSc1cccc(NC(=O)OC2CCCCCCCCCCC2)c1 | 35.5 µM [falling, single point] | – |
| Cc1ccc(C(=O)OCC(=O)c2c[nH]c3ccccc23)cc1NC(=O)c1ccco1 | 11.2 µM [falling, single point] | – |
| COc1ccc(OCCN(C)Cc2c(O)ccc3ccccc23)cc1 | 35.5 µM [falling, single point] | – |
| CC1(CC(=O)NNC(=O)Nc2ccccc2)OCCCO1 | 0.501 µM [rising, full curve] | – |
| COc1cccc(NC(=O)c2ccc(N3C(=O)C4CC=C(C)CC4C3=O)cc2)c1 (configuration not stated) | 22.4 µM [falling, single point] | – |
| C[C@H](c1ccccc1)n1nnc(COCc2ccccc2)c1C#CCOCc1ccccc1 | 5.62 µM [rising, single point] | – |
| CC(C)NC(=S)NCc1cccs1 | 5.62 µM [rising, partial curve, poor fit] | – |
| CCn1cnc2cc(NCc3cccc(OC)c3O)ccc21 | 20.6 µM [rising, single point] | – |
| COc1ccc(-c2cc(C(F)(F)F)nc(SCC(=O)Nc3ccc4c(c3)OCO4)n2)cc1OC | 5.8 µM [rising, full curve, poor fit] | – |
| O=C(N/C(=C\c1cccs1)C(=O)N1CCOCC1)c1ccco1 | 25.1 µM [falling, single point] | – |
| O=C(O)CC/C(=C\c1cccc(NC(=O)c2ccccc2Cl)c1)c1nc2ccccc2s1 | 10 µM [falling, partial curve] | – |
| C/C(=N/NC(=O)c1sc(NS(=O)(=O)c2ccccc2)nc1C)c1ccccc1 | 3.26 µM [falling, partial curve, poor fit] | – |
| O=C(CCN1C(=O)/C(=C/C=C/c2ccccc2)SC1=S)Nc1nccs1 | 10 µM [falling, partial curve] | – |
| CCC1CCCCN1C(=O)Nc1cc(Cl)ccc1OC (configuration not stated) | 12.6 µM [rising, single point] | – |
| CCn1c(SCC(=O)N2c3ccccc3Sc3ccccc32)nnc1-c1ccco1 | 20.6 µM [falling, partial curve, poor fit] | – |
| CN(C)c1nc(-c2ccccc2)ns1 | 31.6 µM [rising, single point] | – |
| COc1cc(C(=O)Nc2cccc(C(C)=O)c2)cc(OC)c1OC | 20 µM [rising, single point] | – |
| Oc1ccc(/C=N/N2CCN(C3c4ccccc4-c4ccccc43)CC2)cc1O | 7.94 µM [falling, partial curve] | – |
| Cc1ccnc(NC(=O)c2ccc(Cl)c(S(=O)(=O)N3CCCC3)c2)c1 | 23.1 µM [falling, single point] | – |
